In the supplement of paper PMC4862054 one finds normalised response data, which are given here for 6 compounds.

Structures are written as SMILES. Most entries show no effect beyond the scatter of the controls.

Common to all, as to experiment: normalised response (% of control), CellTox Green; higher = less cell death (100 = DMSO, 0 = benzethonium chloride kill control)
What all share (settings): incubation time: 72 h

Experiment [1] concerns BT-474. The method, then:
(§1)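 DSRT, 72 h incubation, CellTox Green / CellTiter-Glo readout. Signal is normalised to DMSO and benzethonium chloride controls. Value is the normalised response at the lowest tested concentration.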

The test system of experiment [2] is BT-549. The protocol:
as §1

Experiment [3] deals with CAL-120. The protocol:
as §1

For experiment [4], the system named is CAL-148. The protocol:
as §1

The subject of experiment [5] is CAL-51. The protocol:
as §1

In experiment [6] the test system is CAL-85-1. The method, then: as §1
The subject of experiment [7] is DU-4475. The method, then:
as §1

The subject of experiment [8] is HCC1143. The protocol: as §1
For experiment [9], the system named is HCC1599. The protocol:
as §1

The test system of experiment [10] is HCC1937. The method, then: as §1
Experiment [11] relates to HDQ-P1. The protocol:
as §1

The test system of experiment [12] is Hs578T. The method, then: as §1
Experiment [13] concerns MCF-10A. The protocol:
as §1

Experiment [14] deals with MDA-MB-231. The protocol: as §1
For experiment [15], the system named is MDA-MB-436. The method, then:
as §1

Experiment [16] relates to MDA-MB-453. The protocol:
as §1

Experiment [17] concerns MDA-MB-468. The method, then: as §1
Experiment [18] deals with MFM-223. The protocol: as §1

Consider `O=P1(N(CCCl)CCCl)NCCCO1` (stereo not drawn) [Cyclophosphamide] (4 nM), for which the normalised response in experiment [1] came to 101%; in [2] it was 95.8%; in experiment [3], 97.1%; in [4] it was 86.4%; in experiment [5] it was 114%; in experiment [6], 98.5%. Further, the normalised response in experiment [7] turned out to be 102%; in [8] it was 68.2%; in [9] it was 101%; in experiment [10] it was 98.1%; in [11], 101%; in experiment [12], 62.6%. Moreover, the normalised response amounted to 103% in experiment [13]; 106% in experiment [14]; 100% in experiment [15]; 106% in experiment [16]; 96.2% in experiment [17]; 101% in [18].
Take `Nc1ccn([C@@H]2O[C@H](CO)[C@@H](O)[C@@H]2O)c(=O)n1` [Cytarabine] (1 nM): the normalised response stood at 100% in experiment [1]; 106% in experiment [2]; 106% in experiment [3]; 104% in experiment [4]; 102% in experiment [5]; 102% in experiment [6]. Besides, the normalised response in experiment [7] was determined as 114%; in experiment [8] it was 134%; in [9] it was 118%; in [10] it was 113%; in experiment [11], 93.3%; in experiment [12], 122%. Further, the normalised response stood at 109% in experiment [13]; 115% in experiment [14]; 82.6% in [15]; 109% in [16]; 99.7% in [17]; 102% in [18].
In the case of `COc1cccc2c1C(=O)c1c(O)c3c(c(O)c1C2=O)C[C@@](O)(C(C)=O)C[C@@H]3O[C@H]1C[C@H](N)[C@H](O)[C@H](C)O1` [Daunorubicin] (0.1 nM), the normalised response stood at 100% in experiment [1]; 91.7% in experiment [2]; 98.2% in experiment [3]; 102% in experiment [4]; 103% in [5]; 107% in experiment [6]. Moreover, the normalised response in experiment [7] was determined as 107%; in experiment [8], 114%; in experiment [9] it was 110%; in [10] it was 92.1%; in experiment [11] it was 102%; in experiment [12] it was 77.9%. Further, the normalised response in [13] came to 109%; in [14], 108%; in experiment [15], 78.4%; in experiment [16] it was 111%; in experiment [17] it was 60.5%; in experiment [18], 102%.
For `COc1cccc2cc(-c3nc([C@H]4CC[C@H](C(=O)O)CC4)n4ncnc(N)c34)[nH]c12` [OSI-027] (1 nM), the normalised response in [1] was 101%; in [2], 97.3%; in experiment [3], 96.6%; in experiment [4] it was 105%; in experiment [5] it was 96.2%; in experiment [6], 102%. Moreover, the normalised response is 98% in experiment [7]; 54.8% in experiment [8]; 89.6% in experiment [9]; 62.8% in experiment [10]; 92.4% in experiment [11]; 100% in experiment [12]. Further, the normalised response in experiment [13] worked out at 54.6%; in experiment [14], 96.9%; in experiment [15] it was 77.3%; in experiment [16], 111%; in experiment [17], 76.8%; in experiment [18], 102%.
For the compound `Cc1ccc(Nc2nccc(N(C)c3ccc4c(C)n(C)nc4c3)n2)cc1S(N)(=O)=O` [Pazopanib] (1 nM), the normalised response was 92.6% in [1]; 55.8% in experiment [2]; 97.5% in experiment [3]; 105% in experiment [4]; 108% in experiment [5]; 103% in experiment [6]. Besides, the normalised response came out at 99.3% in [7]; 110% in experiment [8]; 104% in experiment [9]; 104% in experiment [10]; 95.4% in [11]; 97% in experiment [12]. For the same compound, the normalised response was 99.8% in [13]; 90.7% in experiment [14]; 84.7% in experiment [15]; 110% in [16]; 79.7% in experiment [17]; 99.5% in experiment [18].
As for `CC(C)n1cnc2c(NCCc3ccc(O)cc3)nc(-c3csc4ccccc34)nc21` [StemRegenin 1] (1 nM), the normalised response in experiment [1] stood at 100%; in [2], 101%; in [3] it was 105%; in experiment [4], 99.5%; in experiment [5], 103%; in experiment [6] it was 99.4%. Moreover, the normalised response in experiment [7] is 111%; in [8] it was 117%; in [9], 115%; in [10], 93.9%; in experiment [11], 90.7%; in experiment [12] it was 70.5%. For the same compound, the normalised response in experiment [13] is 106%; in experiment [14], 120%; in [15] it was 94.4%; in experiment [16], 108%; in experiment [17], 90%; in experiment [18], 106%.
